The list shows a part of the results.

By UniProt entry, the sequences of proteins in these tests, tags left out. Where a name states a change or a piece, a line headed by the entry shows the natural chain unless it says otherwise.
UniProt P15336: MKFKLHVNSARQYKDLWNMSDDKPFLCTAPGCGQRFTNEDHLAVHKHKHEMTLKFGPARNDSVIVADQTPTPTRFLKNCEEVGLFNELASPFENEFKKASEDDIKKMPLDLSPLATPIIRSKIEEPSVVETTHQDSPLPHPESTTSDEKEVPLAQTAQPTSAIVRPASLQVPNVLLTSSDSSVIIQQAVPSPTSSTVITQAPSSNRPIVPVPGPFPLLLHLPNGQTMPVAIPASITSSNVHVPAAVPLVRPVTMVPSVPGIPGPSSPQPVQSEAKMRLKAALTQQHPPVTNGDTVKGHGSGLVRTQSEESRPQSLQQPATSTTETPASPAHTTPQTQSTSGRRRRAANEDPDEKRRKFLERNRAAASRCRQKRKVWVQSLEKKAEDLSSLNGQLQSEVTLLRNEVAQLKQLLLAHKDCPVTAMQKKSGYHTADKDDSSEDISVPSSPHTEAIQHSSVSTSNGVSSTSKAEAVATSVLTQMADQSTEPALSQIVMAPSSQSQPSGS
UniProt Q8WY22: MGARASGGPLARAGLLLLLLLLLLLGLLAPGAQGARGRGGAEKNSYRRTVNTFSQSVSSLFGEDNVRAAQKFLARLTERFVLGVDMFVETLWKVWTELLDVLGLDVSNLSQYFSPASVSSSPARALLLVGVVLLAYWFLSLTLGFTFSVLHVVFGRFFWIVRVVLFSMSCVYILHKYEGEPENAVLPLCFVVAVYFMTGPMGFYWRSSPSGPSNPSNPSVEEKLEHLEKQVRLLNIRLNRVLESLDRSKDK
UniProt Q9H8W3: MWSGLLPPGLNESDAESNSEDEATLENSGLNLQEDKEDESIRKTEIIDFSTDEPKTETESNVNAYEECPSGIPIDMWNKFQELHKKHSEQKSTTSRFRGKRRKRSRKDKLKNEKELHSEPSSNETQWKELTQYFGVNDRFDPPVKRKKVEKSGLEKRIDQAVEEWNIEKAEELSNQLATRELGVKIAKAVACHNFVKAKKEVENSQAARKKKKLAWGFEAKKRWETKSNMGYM
UniProt Q8N5I2: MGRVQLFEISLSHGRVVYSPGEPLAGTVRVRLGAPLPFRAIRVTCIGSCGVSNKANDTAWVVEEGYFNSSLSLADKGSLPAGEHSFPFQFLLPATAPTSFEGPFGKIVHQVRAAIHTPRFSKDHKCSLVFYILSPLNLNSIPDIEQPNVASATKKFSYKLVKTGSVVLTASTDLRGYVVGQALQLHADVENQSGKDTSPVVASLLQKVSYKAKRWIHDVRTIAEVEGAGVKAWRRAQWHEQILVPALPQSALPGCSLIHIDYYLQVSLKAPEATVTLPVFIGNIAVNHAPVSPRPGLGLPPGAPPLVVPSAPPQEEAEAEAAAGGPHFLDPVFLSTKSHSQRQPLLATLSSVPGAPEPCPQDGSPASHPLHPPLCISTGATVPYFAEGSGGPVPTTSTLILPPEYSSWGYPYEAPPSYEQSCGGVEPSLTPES
UniProt O75348, whole entry: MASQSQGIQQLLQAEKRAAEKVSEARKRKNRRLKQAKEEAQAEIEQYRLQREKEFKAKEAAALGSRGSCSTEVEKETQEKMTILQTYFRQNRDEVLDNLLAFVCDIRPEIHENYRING
UniProt Q96B45: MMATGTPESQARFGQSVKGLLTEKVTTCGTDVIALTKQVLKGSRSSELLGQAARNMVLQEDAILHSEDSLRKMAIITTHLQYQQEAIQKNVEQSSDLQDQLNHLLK
UniProt O95816: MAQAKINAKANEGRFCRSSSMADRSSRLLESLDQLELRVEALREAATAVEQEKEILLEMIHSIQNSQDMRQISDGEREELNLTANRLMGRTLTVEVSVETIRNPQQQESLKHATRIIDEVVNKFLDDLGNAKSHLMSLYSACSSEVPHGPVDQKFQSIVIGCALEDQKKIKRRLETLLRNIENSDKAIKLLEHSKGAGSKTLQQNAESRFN
UniProt Q6DD88: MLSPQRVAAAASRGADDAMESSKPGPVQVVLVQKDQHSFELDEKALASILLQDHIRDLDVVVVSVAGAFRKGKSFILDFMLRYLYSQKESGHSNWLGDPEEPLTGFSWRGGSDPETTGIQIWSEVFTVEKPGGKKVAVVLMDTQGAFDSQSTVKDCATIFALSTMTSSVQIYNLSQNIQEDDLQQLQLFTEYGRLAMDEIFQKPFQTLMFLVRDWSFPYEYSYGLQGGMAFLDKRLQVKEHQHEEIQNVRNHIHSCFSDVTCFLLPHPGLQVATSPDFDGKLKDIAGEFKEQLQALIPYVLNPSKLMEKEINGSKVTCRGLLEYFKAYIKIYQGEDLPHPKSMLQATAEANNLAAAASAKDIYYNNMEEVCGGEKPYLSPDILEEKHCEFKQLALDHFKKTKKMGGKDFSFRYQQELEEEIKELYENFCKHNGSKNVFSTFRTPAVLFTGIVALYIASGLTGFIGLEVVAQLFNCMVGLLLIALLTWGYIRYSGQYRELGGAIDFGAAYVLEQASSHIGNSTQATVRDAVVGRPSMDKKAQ
UniProt Q93050, whole entry: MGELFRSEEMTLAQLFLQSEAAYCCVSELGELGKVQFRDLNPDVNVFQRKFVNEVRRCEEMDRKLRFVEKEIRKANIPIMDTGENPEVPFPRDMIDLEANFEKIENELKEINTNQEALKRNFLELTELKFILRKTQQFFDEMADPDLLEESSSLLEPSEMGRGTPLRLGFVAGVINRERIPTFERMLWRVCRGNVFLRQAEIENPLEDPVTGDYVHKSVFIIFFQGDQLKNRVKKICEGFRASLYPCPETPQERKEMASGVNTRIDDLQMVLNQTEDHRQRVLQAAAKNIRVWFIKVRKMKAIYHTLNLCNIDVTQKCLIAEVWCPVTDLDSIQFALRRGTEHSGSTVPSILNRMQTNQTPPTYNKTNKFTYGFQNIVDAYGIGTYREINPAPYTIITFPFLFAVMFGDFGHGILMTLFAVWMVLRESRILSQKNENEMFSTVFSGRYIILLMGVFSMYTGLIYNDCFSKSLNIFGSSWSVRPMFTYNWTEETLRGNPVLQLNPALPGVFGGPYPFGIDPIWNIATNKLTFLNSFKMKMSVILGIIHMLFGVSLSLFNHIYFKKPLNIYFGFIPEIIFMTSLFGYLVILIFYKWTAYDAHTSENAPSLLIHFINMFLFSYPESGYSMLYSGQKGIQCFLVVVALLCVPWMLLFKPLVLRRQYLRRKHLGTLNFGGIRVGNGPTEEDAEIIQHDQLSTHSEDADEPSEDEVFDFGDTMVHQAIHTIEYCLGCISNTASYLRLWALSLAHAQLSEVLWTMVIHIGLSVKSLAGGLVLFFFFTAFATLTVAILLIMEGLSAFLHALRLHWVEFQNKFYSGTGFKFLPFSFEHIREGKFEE
UniProt P80723: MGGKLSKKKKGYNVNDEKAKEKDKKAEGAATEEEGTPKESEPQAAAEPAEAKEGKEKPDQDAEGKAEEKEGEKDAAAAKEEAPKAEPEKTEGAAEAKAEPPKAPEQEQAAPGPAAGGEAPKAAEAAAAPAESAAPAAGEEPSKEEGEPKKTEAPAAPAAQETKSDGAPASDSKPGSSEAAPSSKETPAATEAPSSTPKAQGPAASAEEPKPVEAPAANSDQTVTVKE
UniProt Q7Z5L2: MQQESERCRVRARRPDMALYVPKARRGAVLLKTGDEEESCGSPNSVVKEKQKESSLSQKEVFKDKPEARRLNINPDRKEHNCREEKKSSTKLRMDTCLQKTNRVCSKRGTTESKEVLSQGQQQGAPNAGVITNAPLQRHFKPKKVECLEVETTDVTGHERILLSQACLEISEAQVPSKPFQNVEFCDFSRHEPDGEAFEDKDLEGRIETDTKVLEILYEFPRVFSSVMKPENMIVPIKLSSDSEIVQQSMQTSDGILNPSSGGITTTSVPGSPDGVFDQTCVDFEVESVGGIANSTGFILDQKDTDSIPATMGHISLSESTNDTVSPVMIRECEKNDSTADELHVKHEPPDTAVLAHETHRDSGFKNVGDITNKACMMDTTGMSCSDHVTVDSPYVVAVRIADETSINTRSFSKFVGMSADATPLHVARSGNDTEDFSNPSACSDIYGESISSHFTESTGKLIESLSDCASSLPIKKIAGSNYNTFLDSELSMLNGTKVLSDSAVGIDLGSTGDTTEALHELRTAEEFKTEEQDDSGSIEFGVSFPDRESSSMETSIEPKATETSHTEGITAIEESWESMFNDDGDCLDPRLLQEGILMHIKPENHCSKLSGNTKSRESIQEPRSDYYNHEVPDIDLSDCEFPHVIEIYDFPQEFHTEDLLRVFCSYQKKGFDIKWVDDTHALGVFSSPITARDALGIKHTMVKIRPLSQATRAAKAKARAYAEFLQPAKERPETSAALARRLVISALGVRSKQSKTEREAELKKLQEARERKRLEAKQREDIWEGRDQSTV
UniProt P15291: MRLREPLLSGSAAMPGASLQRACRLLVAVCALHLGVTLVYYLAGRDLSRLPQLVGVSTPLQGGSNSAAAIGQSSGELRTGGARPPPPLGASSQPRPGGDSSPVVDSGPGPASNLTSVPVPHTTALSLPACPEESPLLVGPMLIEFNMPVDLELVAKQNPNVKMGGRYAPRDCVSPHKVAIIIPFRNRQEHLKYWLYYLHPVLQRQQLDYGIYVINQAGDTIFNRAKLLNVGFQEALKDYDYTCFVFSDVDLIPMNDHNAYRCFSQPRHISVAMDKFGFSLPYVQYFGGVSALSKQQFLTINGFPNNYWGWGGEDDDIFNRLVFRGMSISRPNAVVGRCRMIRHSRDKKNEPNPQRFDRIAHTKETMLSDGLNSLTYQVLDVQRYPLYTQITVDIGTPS
UniProt P54687: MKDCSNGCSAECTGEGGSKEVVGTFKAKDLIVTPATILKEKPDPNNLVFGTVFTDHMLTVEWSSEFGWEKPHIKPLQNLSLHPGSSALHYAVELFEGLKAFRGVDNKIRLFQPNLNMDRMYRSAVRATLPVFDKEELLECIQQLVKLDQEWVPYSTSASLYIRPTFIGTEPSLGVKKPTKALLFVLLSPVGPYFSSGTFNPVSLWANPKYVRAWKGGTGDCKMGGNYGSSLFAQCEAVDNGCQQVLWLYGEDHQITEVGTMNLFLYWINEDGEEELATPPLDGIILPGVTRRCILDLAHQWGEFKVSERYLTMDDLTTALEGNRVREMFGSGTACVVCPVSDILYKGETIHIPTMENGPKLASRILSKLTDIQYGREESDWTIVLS
UniProt Q70Z53: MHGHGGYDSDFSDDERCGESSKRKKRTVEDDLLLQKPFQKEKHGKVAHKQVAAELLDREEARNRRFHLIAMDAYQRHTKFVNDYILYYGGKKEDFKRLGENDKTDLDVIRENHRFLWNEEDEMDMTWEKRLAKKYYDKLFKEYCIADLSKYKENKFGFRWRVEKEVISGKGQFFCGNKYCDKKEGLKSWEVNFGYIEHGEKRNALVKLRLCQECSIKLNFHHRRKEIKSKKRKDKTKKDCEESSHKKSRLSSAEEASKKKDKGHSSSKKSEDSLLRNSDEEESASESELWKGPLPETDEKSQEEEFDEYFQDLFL
UniProt P23634: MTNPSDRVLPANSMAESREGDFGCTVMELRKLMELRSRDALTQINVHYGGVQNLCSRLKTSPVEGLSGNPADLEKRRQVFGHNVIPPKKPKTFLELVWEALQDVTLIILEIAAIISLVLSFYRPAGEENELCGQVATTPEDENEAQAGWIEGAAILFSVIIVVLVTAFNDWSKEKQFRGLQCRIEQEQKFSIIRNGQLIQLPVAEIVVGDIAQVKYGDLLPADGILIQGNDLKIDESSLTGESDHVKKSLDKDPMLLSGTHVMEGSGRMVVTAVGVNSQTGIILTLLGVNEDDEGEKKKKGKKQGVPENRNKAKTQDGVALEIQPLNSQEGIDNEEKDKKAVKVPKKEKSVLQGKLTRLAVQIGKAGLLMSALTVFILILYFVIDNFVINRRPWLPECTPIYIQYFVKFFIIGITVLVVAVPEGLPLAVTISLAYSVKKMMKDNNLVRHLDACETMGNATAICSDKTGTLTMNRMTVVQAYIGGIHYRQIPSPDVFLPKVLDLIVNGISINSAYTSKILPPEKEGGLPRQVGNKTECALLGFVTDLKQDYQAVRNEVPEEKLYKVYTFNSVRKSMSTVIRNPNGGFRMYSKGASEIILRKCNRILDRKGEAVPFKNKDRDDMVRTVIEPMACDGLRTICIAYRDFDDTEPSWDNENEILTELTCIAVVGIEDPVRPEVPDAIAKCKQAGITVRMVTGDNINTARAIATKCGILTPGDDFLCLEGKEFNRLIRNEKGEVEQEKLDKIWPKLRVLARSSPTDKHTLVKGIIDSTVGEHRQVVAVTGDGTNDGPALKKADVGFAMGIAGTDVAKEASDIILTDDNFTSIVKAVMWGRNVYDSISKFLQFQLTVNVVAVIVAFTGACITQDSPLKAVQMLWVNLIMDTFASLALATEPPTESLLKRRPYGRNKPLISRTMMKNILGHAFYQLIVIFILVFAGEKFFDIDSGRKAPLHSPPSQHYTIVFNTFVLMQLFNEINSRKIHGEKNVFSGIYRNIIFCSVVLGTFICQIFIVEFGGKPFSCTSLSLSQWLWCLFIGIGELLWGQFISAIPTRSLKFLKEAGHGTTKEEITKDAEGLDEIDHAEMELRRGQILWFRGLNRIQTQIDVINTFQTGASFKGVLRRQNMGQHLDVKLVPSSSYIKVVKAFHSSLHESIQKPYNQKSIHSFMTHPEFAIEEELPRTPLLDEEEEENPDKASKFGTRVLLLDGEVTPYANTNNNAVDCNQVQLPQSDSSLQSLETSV

Compound in the experiment: COc1ccc(Cn2ccc3ccc(C(=O)NO)cc32)cc1
Nature of the experiment: dose-dependent thermal stabilisation call (2D-TPP, DLPTP, 10% FDR) (binary (1 = stabilised)); higher = stabilised by the compound. Conditions: system: HL-60 intact cells; concentration range 0.04-10 µM.
For the target C10ORF76 (UniProt Q5T2E6), the “dose-dependent thermal stabilisation call” value is inactive: 0.

For the target ATF2 (UniProt P15336), the “dose-dependent thermal stabilisation call” value is inactive: 0. Under BCL2L12 (UniProt Q9HB09) stands inactive: 0; under BRI3BP (UniProt Q8WY22), inactive: 0; under C10ORF84 (UniProt Q9H8W3), inactive: 0.

ARRDC1 (UniProt Q8N5I2): the “dose-dependent thermal stabilisation call” value was inactive: 0. Under ATP6V1G1 (UniProt O75348) stands inactive: 0. For the target BSDC1 (UniProt Q9NW68), the “dose-dependent thermal stabilisation call” value was inactive: 0. In the case of ATPBD3 (UniProt Q7Z7A3), the “dose-dependent thermal stabilisation call” value is inactive: 0.

As to ATP5J (UniProt P18859), the “dose-dependent thermal stabilisation call” value is inactive: 0. Turning to ATAD3A (UniProt Q9NVI7), the “dose-dependent thermal stabilisation call” value was inactive: 0. On to C10ORF32 (UniProt Q96B45), for which the “dose-dependent thermal stabilisation call” value is inactive: 0. In the case of AVEN (UniProt Q9NQS1), the “dose-dependent thermal stabilisation call” value is inactive: 0. For ASCC1 (UniProt Q8N9N2), the “dose-dependent thermal stabilisation call” value was active: 1. The figure for BAG2 (UniProt O95816) is inactive: 0; for ATG2B (UniProt Q96BY7) it is inactive: 0. For the target BMS1 (UniProt Q14692), the “dose-dependent thermal stabilisation call” value was inactive: 0. Take ARMC6 (UniProt Q6NXE6): the “dose-dependent thermal stabilisation call” value was inactive: 0. On to ASAH1 (UniProt Q13510), for which the “dose-dependent thermal stabilisation call” value was inactive: 0. On to ATP11A (UniProt P98196), for which the “dose-dependent thermal stabilisation call” value was inactive: 0. With ATL3 (UniProt Q6DD88), the “dose-dependent thermal stabilisation call” value was inactive: 0. The figure for ATP6V0A1 (UniProt Q93050) is inactive: 0. Take BASP1 (UniProt P80723): the “dose-dependent thermal stabilisation call” value was inactive: 0. For C10ORF28 (UniProt Q7Z5L2), the “dose-dependent thermal stabilisation call” value is inactive: 0.

Regarding C12ORF5 (UniProt Q9NQ88), the “dose-dependent thermal stabilisation call” value was inactive: 0. Consider BCAS3 (UniProt Q9H6U6), for which the “dose-dependent thermal stabilisation call” value was inactive: 0. As for BACH1 (UniProt O14867), the “dose-dependent thermal stabilisation call” value is inactive: 0. The figure for B4GALT1 (UniProt P15291) is inactive: 0; for BCKDK (UniProt O14874) it is inactive: 0; for ATRN (UniProt O75882) it is inactive: 0.

On to BCAT1 (UniProt P54687), for which the “dose-dependent thermal stabilisation call” value is inactive: 0. For the target C10ORF4 (UniProt Q70Z53), the “dose-dependent thermal stabilisation call” value is inactive: 0. The figure for C12ORF65 (UniProt Q9H3J6) is inactive: 0.

Turning to ATIC (UniProt P31939), the “dose-dependent thermal stabilisation call” value was inactive: 0. Consider ATP2B4 (UniProt P23634), for which the “dose-dependent thermal stabilisation call” value was inactive: 0. C12ORF11 (UniProt Q9NVM9): the “dose-dependent thermal stabilisation call” value was inactive: 0. Turning to BLVRA (UniProt P53004), the “dose-dependent thermal stabilisation call” value was inactive: 0.

Values taken from the supplement of paper PMC7666118.
